Measured values: article PMC6219483
These are yes or no findings as the source states them, for the method shown. In cells and extracts the contact can be indirect. Some results given as binding are weak or reduced against the parent protein; the word gives no strength.

By UniProt entry, the sequences of proteins in these tests, tags left out. Residues count along the entry.
UniProt P11021, residues 19-654: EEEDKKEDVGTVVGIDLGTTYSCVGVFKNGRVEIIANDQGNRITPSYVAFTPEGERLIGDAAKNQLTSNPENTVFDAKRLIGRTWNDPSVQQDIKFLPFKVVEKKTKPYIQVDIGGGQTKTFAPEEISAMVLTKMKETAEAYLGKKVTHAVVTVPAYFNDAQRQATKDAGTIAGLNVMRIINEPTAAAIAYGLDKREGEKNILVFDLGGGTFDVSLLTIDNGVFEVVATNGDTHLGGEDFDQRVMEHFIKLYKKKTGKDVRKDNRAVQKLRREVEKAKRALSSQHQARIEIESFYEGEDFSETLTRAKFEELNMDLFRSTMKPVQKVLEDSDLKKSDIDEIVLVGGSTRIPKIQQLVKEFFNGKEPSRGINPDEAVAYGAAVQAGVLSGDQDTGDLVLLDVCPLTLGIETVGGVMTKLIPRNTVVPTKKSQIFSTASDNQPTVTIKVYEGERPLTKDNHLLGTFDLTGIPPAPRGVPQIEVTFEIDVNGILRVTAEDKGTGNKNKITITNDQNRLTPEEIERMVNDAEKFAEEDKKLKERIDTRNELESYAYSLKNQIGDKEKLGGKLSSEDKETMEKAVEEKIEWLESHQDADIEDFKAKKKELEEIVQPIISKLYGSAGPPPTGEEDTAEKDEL

Biological target: glucose-regulated protein 78 kDa (GRP78) (human (endogenous in HUVECs)) (UniProt P11021)
Test: proximity ligation; Duolink in situ red kit mouse/rabbit on HUVECs fixed with 4% PFA after treatment with recombinant ISM (1 μM) for 3 h; ISM against an endogenous protein of the cells; only the binder purified

B1: isthmin (ISM), recombinant (ligand, UniProt A2ATD1 30-454)
chain: SDRQDAAAGNNNLNLESDSTSETSFPLSKEAPEEHQVVHQPFPRQRFPPETGHPSLQRDGPRSFLLDLPNFPDLSKADINGQNPNIQVTIEVVDGPDSEAEKDQHPENKPSWSLPAPDWRAWWQRSLSLARTNSGDQDDKYDSTSDDSNFLSVPRGWDRPAPGHRTFETKEQPEYDSTDGEGDWSLWSVCSVTCGNGNQKRTRSCGYACIATESRTCDRPNCPGIEDTFRTAATEVSLLAGSEEFNATKLFEVDMDSCERWMSCKSEFLKKYMHKVINDLPSCPCSYPTEVAYSTADIFDRIKRKDFRWKDASGPKEKLEIYKPTARYCIRSMLSLESTTLAAQHCCYGDNMQLITRGKGAGTPNLISTEFSAELHYKVDVLPWIICKGDWSRYNEARPPNNGQKCTESPSDEDYIKQFQEAREY
Which binding does the source give for B1 here?
The binding was “binds”.
